Source: PubChem BioAssay AID2517 (National Center for Advancing Translational Sciences (NCATS), 2010)
“And” between values parts separate entries of the source, which are not always exact repeats. Equal values may be shown once. In all, about 350,000 compounds went through this assay and about 1,200 (0.34%) were called active. The inconclusive results got no clear call from the source; some entries with a clear call stand among them for comparison. The call rests on the fitted dose curve; in most records, active means well fitted inhibition curve with a large enough effect; inconclusive means small, poorly fitted or top-dose-only effect; inactive means no such curve, though single readings can be large or run the other way. Potencies beside an inconclusive call are fits to weak or partial responses and may not hold up.

By UniProt entry, the sequences of proteins in these tests, tags left out.
UniProt P27695, whole entry, looked up: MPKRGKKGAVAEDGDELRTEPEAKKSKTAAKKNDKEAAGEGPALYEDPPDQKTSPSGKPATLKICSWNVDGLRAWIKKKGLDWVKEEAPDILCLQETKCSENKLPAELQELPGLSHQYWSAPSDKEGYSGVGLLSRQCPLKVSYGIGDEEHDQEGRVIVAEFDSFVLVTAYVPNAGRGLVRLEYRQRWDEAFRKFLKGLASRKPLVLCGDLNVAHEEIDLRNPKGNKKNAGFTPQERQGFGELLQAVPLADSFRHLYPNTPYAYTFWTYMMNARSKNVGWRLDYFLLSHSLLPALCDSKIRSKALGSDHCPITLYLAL

The molecules below were run against DNA repair nuclease/redox regulator APEX1 (Homo sapiens) (UniProt P27695) (assay: qHTS Assay for Inhibitors of the Human Apurinic/apyrimidinic Endonuclease 1 (APE1)). Conditions: recombinant APE1, TAMRA/BHQ-2 abasic DNA cleavage fluorescence; series mostly up to 65.8 µM.
Method in brief: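 Compound pre-exposure to 0.75 nM APE1, 15 min at ambient temperature. Reaction initiated with 50 nM TAMRA/BHQ-2 THF substrate, read immediately in kinetic mode, 525 nm excitation, 598 nm emission.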
Further: nearly all actives have a fitted effect of over 55% in size.
Potency means the concentration at half of the fitted maximal effect.

| Structure (SMILES) | Potency |
| --- | --- |
| C[C@@H](NC(=O)/C(C#N)=C/c1ccc(O)c(O)c1)c1ccccc1 | inactive and inconclusive: 12.6 µM [inhibitor, partial curve, poor fit] |
| COc1ccc(C(=O)N/N=C/c2sc(N3CCOCC3)nc2-c2ccccc2)cc1OC | inconclusive: 28.2 µM [inhibitor, partial curve] |
| O=C1Nc2ccc([N+](=O)[O-])cc2OC1CCN1CCN(Cc2ccc3c(c2)OCO3)CC1 (centres undefined) | inconclusive: 39.8 µM [inhibitor, partial curve, poor fit] |
| COc1ccc(-c2nc3cnc(N4CCNCC4)nc3n(-c3ccccc3)c2=O)cc1 | inconclusive: 39.8 µM [inhibitor, single point] |
| COc1ccccc1CC(NC(C)=O)C(=O)NC1CCN(c2nnnn2-c2ccccc2)CC1 (centres undefined) | inconclusive: 0.0224 µM [inhibitor, full curve] |
| CSc1nc(N(CCO)CCO)c2sc3nc(-c4ccco4)c4c(c3c2n1)CCC4 | inactive |
| O=C(O)c1ccc(N=C2SCC(=O)N2Cc2ccccc2)cc1 | inactive |
| CC[n+]1ccc(C)c2cc(P(=O)(c3ccccc3)c3ccccc3)ccc21 | inactive |
| C/C(N)=C(/C#N)C(=O)CSc1nnnn1-c1ccccc1 | inconclusive: 44.7 µM [inhibitor, single point] |
| CC(=O)c1ccc(OCc2cc([N+](=O)[O-])cc3c2OCOC3)cc1 | inactive |
| N#Cc1c(NC(=O)CSc2nnc(-c3ccco3)n2-c2ccccc2)sc2c1CCC2 | inconclusive: 25.1 µM [inhibitor, partial curve] |
| COc1cc(/C=N/NC(=O)c2ccccc2Cl)ccc1Oc1ccc([N+](=O)[O-])cn1 | inconclusive: 35.5 µM [inhibitor, single point] |
| O=C(NC1CCCCC1)[C@H](CSCc1ccccc1)N1Cc2ccccc2C1=O | inconclusive: 0.794 µM [inhibitor, full curve] |
| CCn1c(SCc2nc3ccccc3c(=O)[nH]2)nnc1C(C)NC(=O)c1ccccc1F (centres undefined) | inconclusive: 39.8 µM [inhibitor, single point] |
| O=C(c1ccc(COc2ccccc2Cl)o1)N1CCN(c2ccccc2)CC1 | inconclusive: 44.7 µM [inhibitor, single point] |
| Nc1ccc2oc(=O)ccc2c1I | inactive |
| COC(=O)C1CCN(C(=O)C23CCC(C)(C(=O)O2)C3(C)C)CC1 (centres undefined) | inconclusive: 44.7 µM [inhibitor, single point] |
| NC(N)=NCC1COC2(CCCCC2)O1 (centres undefined) | inactive |
| Cn1c(=O)c(-c2ccc(F)cc2)nc2cnc(Nc3ccccc3)nc21 | inactive |
| Cc1cc(=O)oc2cc(OCC(=O)NCc3cccnc3)ccc12 | inconclusive: 0.0398 µM [inhibitor, full curve, poor fit] |
| O=C(CCC(=O)Nc1ccccc1Cl)NNC(=O)c1ccccc1[N+](=O)[O-] | inconclusive: 44.7 µM [inhibitor, single point] |
| COc1cc(SC)ccc1C(=O)Nc1cc(C)c(OCC(=O)N2CCOCC2)c(C)c1 | inactive |

| Structure (SMILES) | Potency |
| --- | --- |
| COc1cc(OC)c2c(c1)OC(c1ccccc1)CC2=O (centres undefined) | inactive |
| N#Cc1cccc(-c2ccc3ncnc(NCc4ccccc4)c3c2)c1 | inactive |
| CCC/C=C(\CCC)C(NC(=O)c1ccco1)c1ccc(C(=O)OC)cc1 (centres undefined) | inconclusive: 2.82 µM [inhibitor, partial curve, poor fit] |
| CCOc1cc(C2c3c(n[nH]c3C)C(=O)N2c2ccc(Br)cc2)ccc1O (centres undefined) | inconclusive: 1.41 µM [inhibitor, full curve] |
| Cc1ccc(C)c2[nH]c(=O)c(C(c3nnnn3Cc3ccco3)N3CCc4ccccc4C3)cc12 (centres undefined) | inconclusive: 20 µM [inhibitor, single point] |
| CC(C)C1=CC2=CC[C@@H]3[C@@](C)(C(=O)O)CCC[C@]3(C)C2CC1 (some centres undefined) | inactive |
| O=C(Nc1nc(-c2ccccn2)cs1)c1ccc([N+](=O)[O-])o1 | inactive |
| COc1ccc(Cl)cc1C(=O)Nc1cccc(-c2ccc3nncn3n2)c1 | inconclusive: 20 µM [inhibitor, partial curve, poor fit] |
| COc1cccc(N=Nc2c(=O)[nH]n3c(=O)c4c([nH]c23)CCC4)c1 | inconclusive: 28.2 µM [inhibitor, single point] |
| Cc1cc(Nc2cc(F)ccc2C)n2ncnc2n1 | inconclusive: 50.1 µM [inhibitor, partial curve] |
| O=c1cc(CN2CCN(S(=O)(=O)/C=C/c3ccccc3)CC2)c2ccc(O)cc2o1 | inconclusive: 25.1 µM [inhibitor, single point] |
| CCCS(=O)(=O)C(=C1NCCO1)S(=O)(=O)CCC | inconclusive: 1 µM [inhibitor, full curve, poor fit] |
| NNc1nc(C(F)(F)F)nc2ccccc12 | inconclusive: 44.7 µM [inhibitor, single point] |
| CC1=CC(=C(C#N)C#N)C=C(C)N1CCC(C)C | inconclusive: 0.199 µM [inhibitor, full curve, poor fit] |
| Cc1coc2c1C(=O)C(=O)c1c-2ccc2c(C)cccc12 | inactive |
| O=C(O)/C(=C\c1cn(-c2ccccc2)nc1-c1cccnc1)NC(=O)c1ccccc1 | inconclusive: 7.94 µM [inhibitor, single point] |
| COC(=O)c1cccc2nc3c(C(C)O)cccc3nc12 (centres undefined) | inconclusive: 4.47 µM [inhibitor, partial curve, poor fit] |
| O=C(O)[C@H]1C[C@@H](CP(=O)(O)O)CCN1 | inconclusive: 39.8 µM [inhibitor, single point] |
| Cc1ccc(SC(C)c2nc(-c3cccnc3)no2)cc1 (centres undefined) | inconclusive: 31.6 µM [inhibitor, partial curve] |
| O=c1c2ccccc2ncn1-c1ccc(Cl)cc1 | inconclusive: 35.5 µM [inhibitor, single point] |
| O=C(c1cccc(F)c1)N1CCC[C@@]2(CCN(Cc3ccccc3)C2)C1 | inactive |
| CC(C)c1ccc(S(=O)(=O)Nc2ccc(O)c(Sc3ncn[nH]3)c2)cc1 | inactive |

In a second layout: results already given
Structure (SMILES)	Potency
O=C1Nc2ccc([N+](=O)[O-])cc2OC1CCN1CCN(Cc2ccc3c(c2)OCO3)CC1 (centres undefined)	inconclusive: 39.8 µM [inhibitor, partial curve, poor fit]
Cc1ccc(C)c2[nH]c(=O)c(C(c3nnnn3Cc3ccco3)N3CCc4ccccc4C3)cc12 (centres undefined)	inconclusive: 20 µM [inhibitor, single point]
Cc1cc(Nc2cc(F)ccc2C)n2ncnc2n1	inconclusive: 50.1 µM [inhibitor, partial curve]
